At least one compound was matched to its structure with a doubt left.
Legend:
[1] = target: γ-secretase (Homo sapiens, UniProt P49768); test: Cell-free in vitro γ-secretase assay; format: biochemical
Experimental: FIG. 5. Fenofibrate-Biotin (Fen-B) is an Aβ42 raising GSM that labels cell-derived APP-CTF. (A) The effects of fenofibrate and fenofibrate-biotin (Fen-B) on Aβ production were investigated in a cell-free in vitro γ-secretase assay performed as described in the methods. […] Percent control Aβ species±s.e.m., n=2. (B) Fen-B labels APP-CTFs from cells lysates. CHAPSO solubilized membrane fractions from H4 APP-CTF-105-AP cells were irradiated (350 nm) in the presence of Fen-B (50 μM) for 30 minutes. Biotinylated material was precipitated with streptavidin overnight (SAv). Beads were washed (3×) and then incubated with XT sample buffer, heated to 95° C., run on 12% Criterion XT gels, and transferred to nitrocellulose membranes. Blots were probed for biotin (Bethyl) and APP (CT20). Excess drug (Fen-B) and unlableled APP-CTF is detected in the flow-through from the beads (unbound lane). Biotin bound to streptavdin (SAv) is detected by the anti-biotin antibody. APP-CTF-83 is pulled down in lane 2 and is reactive with anti-biotin and anti-APP (CT20).
Congo red (CR) and chrysamine G (CG), two of the most well characterized amyloid-β dyes, act as GSMs in cell-free γ-secretase assays.

Protein sequences, listed by entry. Tags and fused reporters are not part of them. Residues count along the entry.
UniProt P05067, 688-770 limits assumed: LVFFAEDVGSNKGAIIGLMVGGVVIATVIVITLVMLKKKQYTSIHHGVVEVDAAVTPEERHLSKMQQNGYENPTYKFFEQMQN

[2] = tested on: H4Bri-C99 (CTF-3); conditions: 33 μM, 6 hours
Experimental: FIG. 6. […] Parent GSMs and biotin tagged photoactivatable GSMs were evaluated for their effects on Aβ secreted from H4Bri-C99 (CTF-3). Cells were treated with compounds for 6 hours and Aβ measured by ELISA. […] Changes in Aβ (percent control)±s.e.m., n=3.
Photoaffinity labelling. All experiments used the following general protocol. Samples (recombinant or synthetic peptides, cell lysates and membrane preparations) were exposed in borosilicate test tubes to ultraviolet light (350 nm) in a Rayonet Photoreactor R100 (RPR-3500 lamps, Southern New England Ultra Violet Company) in a cold room (4° C.) for 30 minutes or as otherwise noted. Crosslinked samples were analyzed by ELISA for biotin incorporation, or analyzed directly by SDS-PAGE (Criterion-XT, Bio-Rad), or after precipitation with streptavidin ultralink plus beads (Pierce). After immunblotting, proteins were detected using chemiluminesence (ECL Plus, GEHealthcare) or near-infrared fluorescence (LiCor Odyssey). Full-length APP and APP CTFs (CTF83, CTF99) were detected with CT20, a rabbit polyclonal antibody against the C-terminus of APP. Biotin was detected with an affinity-purified rabbit polyclonal antibody (Bethyl). Cell-based screens for amyloid-β modulation. […] Media was analyzed for various amyloid-β species (40, 42 and total) using ELISAs as described herein. […]

[3] = target: T1, APP-CTF (Homo sapiens, UniProt P05067); test: Photoaffinity labelling of APP and APP CTF in H4 cell membrane fractions and competition; format: binding; conditions: photoprobes 50 μM, data not shown
T1 construct: this protein was designated α-secretase-derived APP CTF (CTF83) on the basis of molecular weight; expressed in transfected cells
Experimental: Photoaffinity labelling. All experiments used the following general protocol. Samples (recombinant or synthetic peptides, cell lysates and membrane preparations) were exposed in borosilicate test tubes to ultraviolet light (350 nm) in a Rayonet Photoreactor R100 (RPR-3500 lamps, Southern New England Ultra Violet Company) in a cold room (4° C.) for 30 minutes or as otherwise noted. Crosslinked samples were analyzed by ELISA for biotin incorporation, or analyzed directly by SDS-PAGE (Criterion-XT, Bio-Rad), or after precipitation with streptavidin ultralink plus beads (Pierce). After immunblotting, proteins were detected using chemiluminesence (ECL Plus, GEHealthcare) or near-infrared fluorescence (LiCor Odyssey). Full-length APP and APP CTFs (CTF83, CTF99) were detected with CT20, a rabbit polyclonal antibody against the C-terminus of APP. Biotin was detected with an affinity-purified rabbit polyclonal antibody (Bethyl). Cell-based screens for amyloid-β modulation.

CC(C)OC(=O)C(C)(C)Oc1ccc(C(=O)c2ccc(Cl)cc2)cc1 [fenofibrate]
Aβ42 in cell-free γ-secretase assay [1]: raise Aβ42 with similar potencies | total or Aβ40 levels [2]: no changes | competition of FL-APP and APP CTF labeling by Fen-B and Flurbi-BpB [3]: prevents labeling of FL-APP and APP CTF

— patent publication US20110021471A1, “REDUCING Abeta42 LEVELS AND Abeta AGGREGATION” (priority 2007, published 2011)
